Laboratory results: US20180228811A1, “GDNF INDUCTION FOR THE TREATMENT OF RETINAL DISORDERS” (THE SCHEPENS EYE RESEARCH INSTITUTE, INC., priority 2014, published 2018)

Test system: retinal cell markers
Assay: Immunohistochemical analysis of retina of rhodopsin knockout mice after Compound I suspension
Type: in vivo, mouse
Experimental: To study photoreceptor rescue by Compound I suspension (60 mg/ml), 2 ul of suspension (n=5) or Vehicle (n=5) were administered intravitreally to 4-week old rhodopsin knockout mice using a beveled glass needle, connected to a Hamilton syringe through polyethylene tubing. During the injection, corneal paracenthesis was performed to reduce intraocular pressure. 10 weeks after the injection, eyes were enucleated and fixed in Davidson solution for histological processing: paraffin embedding and sectioning. Six micron thick sections were cut in the area close to optic nerve head (ONH) and stained with hematoxylin-eosin (H&E) or processed for immunohistochemical analysis (IHC). H&E-stained sections were imaged (Olympus imaging system DP72) and total photoreceptor number was estimated based on the nuclei count in the outer nuclear layer (ONL). Cells were counted in each 100 um retina span starting from optic nerve head on three sections for each eye (five eyes per group). Total photoreceptor number per section was also calculated.
For IHC, sections were deparaffinized, heated (95° C.) in citrate buffer (pH 6.0) for 30 minutes, then blocked and stained with the antibodies for the following antigens. The photoreceptors: Opsin Blue (Millipore), Cone Arrestin (Millipore), Opsin Red/Green (Millipore), Recoverin (Millipore), Rod Outer Membrane 1 (Abnova); Müller glia and astrocytes: Lh×2 (Millipore), Glutamate synthase (Abcam), Glial Fibrillar Acidic Protein (Millipore); bipolar cells: Protein Kinase C alpha (Santa Cruz); ganglion cells: NeuN (Millipore) and GDNF (Santa Cruz).

COc1cc2c(cc1S(=O)(=O)c1ccc(OCc3ccc(Cl)cc3)cc1)CCN(C)CC2 [Compound I, 7-[4-(4-chloro-benzyloxy)-benzenesulfonyl]-8-methoxy-3-methyl-2,3,4,5-tetrahydro-1H-3-benzazepine]
expression of cone visual pigments (opsin blue and opsin red/green) or length of outer segments (rho-/- retina 10 weeks after treatment): No difference | recoverin staining (rho-/- retina 10 weeks after treatment, compared to age-matched controls and vehicle-treated retina): Slightly increased intensity | Muller glia markers (Lhx2, GFAP, GS) and bipolar cell marker PKCa expression (rho-/- retina, untreated, vehicle-treated and Compound I treated, 10 weeks after the injection): expressed at similar level in all groups
